B1: β2GPI: plasmin-free (intact) β2GPI purified from human plasma or recombinant (protein)
chain: GRTCPKPDDLPFSTVVPLKTFYEPGEEITYSCKPGYVSRGGMRKFICPLTGLWPINTLKCTPRVCPFAGILENGAVRYTTFEYPNTISFSCNTGFYLNGADSAKCTEEGKWSPELPVCAPIICPPPSIPTFATLRVYKPSAGNNSLYRDTAVFECLPQHAMFGNDTITCTTHGNWTKLPECREVKCPFPSRPDNGFVNYPAKPTLYYKDKATFGCHDGYSLDGPEEIECTKLGNWSAMPSCKASCKVPVKKATVVYQGERVKIQEKFKNGMLHGDKVSFFCKNKEKKCSYTEDAQCIDGTIEVPKCFKEHSSLAFWKTDASDVKPC
B2: plasmin-treated β2GPI: β2GPI treated with plasmin, majority nicked, does not bind PS (protein)
chain: B1 chain
B3: Recombinant Plasmin-free β2GPI (protein, UniProt P02749 20-345, looked up)
Beta-2-glycoprotein 1: B1 chain
modifications: recombinant, plasmin-free
B4: Human Plasmin-free β2GPI (protein, UniProt P02749 20-345, looked up)
Beta-2-glycoprotein 1: B1 chain
modifications: plasmin-free

Test system: total β2GPI
Experiment: Assay for total β2GPI (capture and detection anti-β2GPI antibodies)
Format: binding, human
Conditions: for concentration read out in total β2GPI assay: β2GPI from human plasma; for Conc. (ng/mL) read out in Total β2GPI Assay: commercial capture and detection anti-β2GPI antibodies, nicked vs intact β2GPI samples

Molecule	concentration read out in total β2GPI assay	Conc. (ng/mL) read out in Total β2GPI Assay [ng/mL]
B1	approximately 141 ng/mL	
B2	104 ng/mL	
B3		140.90
B4		140.90

Reference: patent publication US11571459B2, “Methods for treating cancer using PS-targeting antibodies with immuno-oncology agents” (ONCXERNA THERAPEUTICS, INC., priority 2017, dated 2023)
